In article PMC3742533:
These are yes or no findings as the source states them, for the method shown. Binding seen in cells or lysates may run through a third protein. For some of these results: Binding calls can cover weak binding; strength is not graded here. Sequences can lack the tags named with a protein. Values belong to the molecule of their own block, whether it stands above or below them.

Legend:
FLAG-tagged endoglin = target: T1, FLAG-tagged endoglin (UniProt P17813); assay: co-IP; PC3-M cells transiently co-transfected; surface proteins crosslinked with 2 mM DTSSP before lysis (10 mM Tris HCl pH 7.4, 145 mM NaCl, 10% glycerol, 0.5% NP-40); IP with anti-FLAG or anti-Myc overnight at 4°C; crosslinker cleaved before Western blot
T1 sequence: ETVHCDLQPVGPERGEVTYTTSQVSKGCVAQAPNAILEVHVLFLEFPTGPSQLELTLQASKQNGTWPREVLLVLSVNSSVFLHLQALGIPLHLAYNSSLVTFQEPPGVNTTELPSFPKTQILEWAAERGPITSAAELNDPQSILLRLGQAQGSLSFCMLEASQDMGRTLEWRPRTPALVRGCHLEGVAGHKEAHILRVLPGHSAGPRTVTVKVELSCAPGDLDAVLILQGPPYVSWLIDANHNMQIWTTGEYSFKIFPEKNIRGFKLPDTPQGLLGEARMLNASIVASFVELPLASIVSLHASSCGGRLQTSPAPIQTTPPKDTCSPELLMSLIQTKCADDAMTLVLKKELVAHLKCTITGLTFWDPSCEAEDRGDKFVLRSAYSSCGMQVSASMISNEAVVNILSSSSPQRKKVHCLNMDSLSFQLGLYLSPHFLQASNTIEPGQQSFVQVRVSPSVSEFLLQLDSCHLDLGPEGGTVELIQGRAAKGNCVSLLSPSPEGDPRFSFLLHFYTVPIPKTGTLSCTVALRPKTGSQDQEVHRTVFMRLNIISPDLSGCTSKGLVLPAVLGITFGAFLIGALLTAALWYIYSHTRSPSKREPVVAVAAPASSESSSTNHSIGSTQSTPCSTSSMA

[1] = target: Myc-tagged ActRIIA lacking the kinase domain; assay: as above
[2] = target: FLAG-tagged BMPRII with the tail domain deleted; assay: condition: only without crosslinking of cell surface proteins; co-IP; as a1 but surface proteins of the PC3-M cells not crosslinked (-); FLAG-BMPRII immunoprecipitated, blot for endoglin
[3] = target: FLAG-tagged BMPRII with the tail domain deleted; assay: co-IP; PC3-M cells transiently co-transfected; surface proteins crosslinked with 2 mM DTSSP before lysis (10 mM Tris HCl pH 7.4, 145 mM NaCl, 10% glycerol, 0.5% NP-40); IP with anti-FLAG or anti-Myc overnight at 4°C; crosslinker cleaved before Western blot

Molecule: Myc-tagged ActRIIA lacking the kinase domain (domain or fragment)
binding (FLAG-tagged endoglin): binds

binding [1]: binds
B1: FLAG-tagged endoglin (receptor, UniProt P17813 26-658)
chain: T1 sequence

binding [2]: no binding
binding [3]: binds
B2: untagged endoglin (receptor, UniProt P17813 26-658)
chain: T1 sequence
